Measured values reported in the supplement of paper PMC3334620.
Whole data set: some 33,000 sequences, median “E-score (-0.5 to 0.5)” near -0.0014, cut for the highest 2% near 0.25. Some of the results follow.

These sequences were tested against T1, Cad1 (UniProt P24813) (assay: PBM E-score (8-mer binding enrichment) (E-score (-0.5 to 0.5)); higher = stronger / more preferred TF binding). Details: protein concentration: 100 nM; construct: GST-full length.
T1 sequence: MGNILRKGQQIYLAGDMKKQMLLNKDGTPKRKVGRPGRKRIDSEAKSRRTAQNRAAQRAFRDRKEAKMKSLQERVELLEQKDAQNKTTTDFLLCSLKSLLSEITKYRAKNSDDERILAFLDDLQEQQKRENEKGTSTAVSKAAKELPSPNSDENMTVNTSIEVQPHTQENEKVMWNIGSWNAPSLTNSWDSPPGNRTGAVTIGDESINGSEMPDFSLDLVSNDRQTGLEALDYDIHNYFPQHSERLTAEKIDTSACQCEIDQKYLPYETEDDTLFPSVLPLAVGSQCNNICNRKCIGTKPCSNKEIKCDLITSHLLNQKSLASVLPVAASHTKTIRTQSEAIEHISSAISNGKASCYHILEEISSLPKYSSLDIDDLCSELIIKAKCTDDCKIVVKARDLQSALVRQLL
Protocol: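 Universal 'all 10-mer' protein binding microarrays (Agilent AMADID 015681) probed with GST-tagged S. cerevisiae TFs (full-length or DBD) made by in vitro transcription/translation (PURExpress), about 100-200 nM. Bound TF was detected with fluorescent anti-GST. Each ungapped 8-mer (which stands for itself and its reverse complement) is scored by the PBM enrichment score (E-score), a modified Wilcoxon-Mann-Whitney statistic from -0.5 to +0.5, computed with the Universal PBM Analysis Suite. Scale: above 0.35 generally sequence-specific binding.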

Sequence	PBM E-score
GGGTTAAC	0.0259
CCTCTTAC	-0.126
AATCTGAT	0.106
TGGCTCAA	-0.0222
CATTGCGA	-0.0373
AGTTCCTG	-0.0833
CGTTCAAA	0.0232
ATCCTTGC	-0.00968
AACCATTG	-0.0153
CAGAATGA	0.035
GAAATGAA	0.216
CCAGAACC	-0.0644
CCAAAGCA	-0.0819
AATTACCC	-0.0156
CGACGAAG	-0.0174
GTGTAGAA	-0.138
CTATAGAC	-0.0559
AGCTTGGG	-0.104
GGTTTGCA	-0.00846
CCCTAGCA	-0.141
GCTCTGCC	-0.303
ACTACCTA	0.0704
AGACCCTC	-0.229
CCCTTAAC	-0.237
ATCACTTC	0.0521

Rewritten bar-delimited: entries from further up.
Sequence | PBM E-score
TGGCTCAA | -0.0222
CATTGCGA | -0.0373
AGTTCCTG | -0.0833
CGTTCAAA | 0.0232

Additional records

Sequence	PBM E-score
GGTGTGGA	0.00718
CATTCACG	-0.0502
GGACCTAA	-0.0962
CGTGGAAG	0.155
CGCCTTAA	0.00716
GGGGGACA	-0.326
CGCCGTGA	-0.117
CACGGGGC	-0.076
AGAGGTCA	-0.0772
CGCCATGC	-0.13
ATATAATA	0.261
GGGTAACA	-0.0678
CACGCGTC	0.189
CCTAGTAC	-0.0245
CCAGGCAA	-0.0574
CTGCACCA	-0.157
TGCAACCA	-0.096
GTGGTGAA	0.00074
CCTGGACA	-0.00527
CTCATGCC	-0.0123
ACGACGGG	-0.0583
CTTTTGTA	0.13
AGCGAGAC	-0.16
GGTTATCA	-0.0747
CTTCTGGC	-0.0168

Sequence	PBM E-score
AACTTTGT	0.0235
ATTCCCCA	0.0165
CAGTAACC	-0.0321
CACGGGCA	-0.145
AGTGTCAG	-0.0118
ACTCCATC	0.092
AAGTTAGG	-0.00194
ACTCGTCA	0.0115
CTTAGGGA	-0.182
CCCCAACG	0.0976
CGAGTAAC	0.147
CTAGCACA	-0.212
ACGTGCAT	-0.0352
ACTTCCCC	-0.361
TTCGACAA	0.0549
CAGCACAC	-0.152
ACAACAAG	0.0211
GGACCCTA	-0.282
GCTGCGGA	0.0108
GTGTATCA	0.146
CGCCGCCG	0.0125
ATCCAAAG	0.236
AAGGGGGG	-0.499
ACTAGGGC	-0.101
CAATCGTA	0.17

Random excerpt: 6 records from the list
Sequence	PBM E-score
ACTAGGGC	-0.101
CAGCACAC	-0.152
CACGGGCA	-0.145
CGCCGCCG	0.0125
ATTCCCCA	0.0165
CTAGCACA	-0.212

Further records:

Sequence	PBM E-score
GTCCTAAC	-0.145
CACAGCGC	0.0512
AAAATACG	0.221
CAATTTCA	0.0182
CGGTCTAG	-0.125
GGAGGGCA	-0.153
TACTGGAA	0.0153
CAGTACTG	0.071
ATGGATGC	0.0645
ATTAACCG	0.171
GACTCTAC	-0.0913
AGTTCTTG	0.063
CACTGCAC	-0.00653
ATGGTAAA	0.0942
CGGAATAA	0.0145
AAGATCGT	-0.0494
CTTTTTAC	0.018
CTCTTTTA	-0.165
AAAGATCC	-0.149
AGGTTCCG	0.117
CAGGGTCG	-0.117
CCCGGATC	0.0164
TGCACAAA	0.0803
AGCCATAC	-0.0685
AATCCTCG	0.0842

Sequence	PBM E-score
AGTGTCTC	-0.0122
CCGTTTAA	0.0765
ACCAGTTA	0.0728
CGCTGTCA	-0.00518
GCTGCCAA	-0.129
ATATGGCA	0.125
CACCCACG	-0.0164
GATGTTGC	0.041
ACAGACTC	-0.119
CACACAGG	0.0713
GTTCTTCA	-0.0376
ATGGCAAC	0.137
GAATGGTA	-0.0628
GTGTGTGA	0.0506
AAATCGTA	-0.0277
TCGGCGAA	0.067
GCTTGCCA	-0.187
AGCGCGCT	0.152
AGGTATTA	0.167
ACTACTAG	0.0646
CTACCGCA	-0.0587
AAGAGGTG	0.0182
CATAATCG	0.196
ATTAAGTC	0.17
CTGAAGTC	-0.0337

Sequence	PBM E-score
ACTCTAAA	0.101
TTCCTAAA	-0.0718
GCATCACC	-0.0453
GGTGACAA	0.227
CAATACGC	0.11
CTGAACGC	-0.00607
CCGGCCGG	0.0539
AGAAGTCC	-0.187
CCCGGCAA	-0.0126
GCCCTGCC	-0.266
AGGTGAGG	-0.0397
AAGTGCAA	0.0338
TGTGATAA	0.203
ATGAATAC	0.0231
TCGCCCAA	0.0242
CAACCGGG	-0.0276
TGATTCAA	0.0493
CACATGGA	-0.0211
CTCATAGA	0.0924
TATACTGA	0.288
ACAAAGTG	0.0733
ACAATCGA	0.155
ACGCGCGG	0.136
ATTATTAA	0.384
TGAAAAAA	0.157

Sequence	PBM E-score
CACGCCGG	0.00425
ATGAGGAC	-0.0183
GCCATCGC	-0.0798
CGTTTGCC	0.121
AGATAATG	0.169
GGACTCTA	-0.157
ACGGCGAG	-0.0541
GCATACAA	0.0139
AACGGGAA	0.00234
ACCACGTG	-0.0522
ACGTGTAG	-0.075
GCATCCCC	-0.268
AATGAAGT	0.0399
TCAAATGA	-0.0111
ATATCGGG	0.0906
AGTCACCC	-0.102
CGTCGGTA	-0.197
GAATAAAA	0.242
ACCAGCGC	0.00226
GCTTGATA	0.22
TCCTAAGA	-0.131
ATATGATG	0.0529
GTTGTAAA	-0.0654
AGGGCAGC	-0.00125
ATGCACAA	0.0466

Sequence	PBM E-score
AAACATGG	0.00473
CAATGAGA	-0.13
ACGGTTAT	-0.0865
ACCAGGTA	-0.239
AAATTGGA	0.238
AACGATTG	0.0114
AGGTAGTG	0.0658
CCTTGGAG	0.0392
ACCGTCCT	-0.0118
GAGTGTGA	0.028
CGGCCAAC	-0.0328
ATCCCTAA	-0.121
AAAGCCGC	-0.0533
GCAGCGGC	-0.0963
CGGAGGGA	-0.0156
GAGAAACA	0.181
CCGTTGCG	0.0552
CACACGTA	-0.193
CCATAATA	0.00312
CCCTGAGG	-0.2
CAGTGATC	0.0334
AAAAGGTT	-0.227
ATTCATCC	0.0565
AGATAGTC	-0.0777
CGTATTAG	0.165

Sequence	PBM E-score
TCTAGAGA	-0.267
GGCTGAAA	-0.00366
CTCTCGCC	-0.205
AGATCGAA	0.0446
GCGGGAAA	0.144
GAATTACA	0.172
ATGTCGGA	0.083
CCCATCGC	-0.0535
GTTTCTTA	0.0603
CGTGACCC	-0.185
AGTGGCCG	-0.114
AGGATTCC	-0.106
CTAGATGC	0.0694
CCATCTCC	0.0554
GGCCGCCA	-0.133
AGCTCTTA	0.0297
GACTGTGA	0.163
AGCCCATA	-0.0468
ATGTTATA	0.126

Looked up above.
Entry of CGCCGCCG under PBM E-score: 0.0125
Entry of GGGTAACA under PBM E-score: -0.0678
